Reference: PubChem BioAssay AID1224828 (NIAID, 2016)
The deposit covers about 17,000 reagents; below is a random part of them. Of all reagents, 762 (4.5%) got an active call. 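Active calls include both raised and lowered p65 entry, mostly lowered; wells with fewer than 50 cells lack a z-score.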 Raw values are not corrected between plates. The numbers tell different reagents against one gene apart. No sequences are given here.

Aim: 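Knock-downs that increase or decrease LPS-induced p65 nuclear translocation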 (primary screen)
Cell system: mouse RAW264.7 G9 macrophage reporter cells (GFP-p65, Tnf promoter-mCherry)
Knock-down reagent: siRNA pool against mouse genes, 100 nM
Duration: 2 days siRNA transfection, then 40 min LPS before fixation
Conditions: LPS (Salmonella minnesota R595) at 10 ng/ml
Detection: 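Imaged p65 nuclear translocation ratio, normalised to the plate median, converted to robust z-scores and averaged across two replicates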
Direction: p65 translocation robust z-score: higher = more nuclear NF-kappaB p65 after LPS than the plate median; nuclear/cytoplasmic p65 ratio: higher = more nuclear NF-kappaB p65
Rule for the call: 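Called active when z exceeds 3.3 or falls under -1.56 (median of Tlr4 controls), giving activity score of at least 50; no calls for control wells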
Calls: active = hit (p65 shift raised or lowered); inactive = no clear change

The opening 2 entries, ahead of the listing:
Zmynd10 (zinc finger, MYND domain containing 10) — nuclear/cytoplasmic p65 ratio, rep 1 = 1.22; nuclear/cytoplasmic p65 ratio, rep 2 = 1.19; low cell count flag = fewer than 50 cells per well; well left out of scoring; Outcome = inactive
Ssh2 (slingshot protein phosphatase 2) — p65 translocation robust z-score = -0.67; nuclear/cytoplasmic p65 ratio, rep 1 = 1.45; nuclear/cytoplasmic p65 ratio, rep 2 = 1.47; low cell count flag = enough cells to score; Outcome = inactive

The listing, from the first entry:
Zmynd10 (zinc finger, MYND domain containing 10) — nuclear/cytoplasmic p65 ratio, rep 1 = 1.22; nuclear/cytoplasmic p65 ratio, rep 2 = 1.19; low cell count flag = fewer than 50 cells per well; well left out of scoring; Outcome = inactive
Ssh2 (slingshot protein phosphatase 2) — p65 translocation robust z-score = -0.67; nuclear/cytoplasmic p65 ratio, rep 1 = 1.45; nuclear/cytoplasmic p65 ratio, rep 2 = 1.47; low cell count flag = enough cells to score; Outcome = inactive
Edc3 (enhancer of mRNA decapping 3) — nuclear/cytoplasmic p65 ratio, rep 1 = 1.12; nuclear/cytoplasmic p65 ratio, rep 2 = 1.27; low cell count flag = fewer than 50 cells per well; well left out of scoring; Outcome = inactive
Hoxd13 (homeobox D13) — p65 translocation robust z-score = 0.4; nuclear/cytoplasmic p65 ratio, rep 1 = 1.47; nuclear/cytoplasmic p65 ratio, rep 2 = 1.44; low cell count flag = enough cells to score; Outcome = inactive
Defb12 (defensin beta 12) — p65 translocation robust z-score = 1.12; nuclear/cytoplasmic p65 ratio, rep 1 = 1.71; nuclear/cytoplasmic p65 ratio, rep 2 = 1.73; low cell count flag = enough cells to score; Outcome = inactive
Acat1 (acetyl-Coenzyme A acetyltransferase 1) — p65 translocation robust z-score = 0.81; nuclear/cytoplasmic p65 ratio, rep 1 = 1.89; nuclear/cytoplasmic p65 ratio, rep 2 = 1.59; low cell count flag = enough cells to score; Outcome = inactive
Smarcal1 (SNF2 related chromatin remodeling ATPase like 1) — p65 translocation robust z-score = 0.99; nuclear/cytoplasmic p65 ratio, rep 1 = 1.66; nuclear/cytoplasmic p65 ratio, rep 2 = 1.74; low cell count flag = enough cells to score; Outcome = inactive
Hrh4 (histamine receptor H4) — p65 translocation robust z-score = 0.71; nuclear/cytoplasmic p65 ratio, rep 1 = 1.57; nuclear/cytoplasmic p65 ratio, rep 2 = 1.73; low cell count flag = enough cells to score; Outcome = inactive
Ctdnep1 (CTD nuclear envelope phosphatase 1) — nuclear/cytoplasmic p65 ratio, rep 1 = 1.61; nuclear/cytoplasmic p65 ratio, rep 2 = 1.55; low cell count flag = fewer than 50 cells per well; well left out of scoring; Outcome = inactive
Mfap2 (microfibrillar-associated protein 2) — p65 translocation robust z-score = 0.78; nuclear/cytoplasmic p65 ratio, rep 1 = 1.74; nuclear/cytoplasmic p65 ratio, rep 2 = 1.74; low cell count flag = enough cells to score; Outcome = inactive
Pi16 (peptidase inhibitor 16) — p65 translocation robust z-score = 1.03; nuclear/cytoplasmic p65 ratio, rep 1 = 1.5; nuclear/cytoplasmic p65 ratio, rep 2 = 1.58; low cell count flag = enough cells to score; Outcome = inactive
Prlr (prolactin receptor) #1 — p65 translocation robust z-score = 0.41; nuclear/cytoplasmic p65 ratio, rep 1 = 1.59; nuclear/cytoplasmic p65 ratio, rep 2 = 1.43; low cell count flag = enough cells to score; Outcome = inactive
Prlr (prolactin receptor) #2 — p65 translocation robust z-score = -0.53; nuclear/cytoplasmic p65 ratio, rep 1 = 1.53; nuclear/cytoplasmic p65 ratio, rep 2 = 1.6; low cell count flag = enough cells to score; Outcome = inactive
Sun3 (Sad1 and UNC84 domain containing 3) — nuclear/cytoplasmic p65 ratio, rep 1 = 1.22; nuclear/cytoplasmic p65 ratio, rep 2 = 1.57; low cell count flag = fewer than 50 cells per well; well left out of scoring; Outcome = inactive
